Results are given in words; binding and its absence hold for the method and conditions named. In cells and extracts the contact can be indirect. Some binding calls cover weakened binding; strength is not graded here.

Protein sequences, listed by entry. Tags and fused reporters are not part of them.
UniProt P29067: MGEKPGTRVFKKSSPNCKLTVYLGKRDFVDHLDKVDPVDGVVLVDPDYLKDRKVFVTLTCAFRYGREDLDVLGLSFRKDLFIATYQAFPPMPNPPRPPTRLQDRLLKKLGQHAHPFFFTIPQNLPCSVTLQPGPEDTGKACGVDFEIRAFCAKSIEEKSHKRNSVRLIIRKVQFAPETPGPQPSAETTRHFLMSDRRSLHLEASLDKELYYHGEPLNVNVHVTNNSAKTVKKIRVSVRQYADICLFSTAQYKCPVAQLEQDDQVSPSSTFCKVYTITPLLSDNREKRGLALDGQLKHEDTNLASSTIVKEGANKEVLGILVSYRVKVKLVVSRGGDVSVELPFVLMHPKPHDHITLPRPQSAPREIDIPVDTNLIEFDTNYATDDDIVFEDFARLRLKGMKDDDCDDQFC

The experiment concerns the target T1, type III TGF-β1 receptor (not stated (endogenous in HSCs: rat HSC-T6 or human LX-2)) (UniProt P26342).
T1 sequence: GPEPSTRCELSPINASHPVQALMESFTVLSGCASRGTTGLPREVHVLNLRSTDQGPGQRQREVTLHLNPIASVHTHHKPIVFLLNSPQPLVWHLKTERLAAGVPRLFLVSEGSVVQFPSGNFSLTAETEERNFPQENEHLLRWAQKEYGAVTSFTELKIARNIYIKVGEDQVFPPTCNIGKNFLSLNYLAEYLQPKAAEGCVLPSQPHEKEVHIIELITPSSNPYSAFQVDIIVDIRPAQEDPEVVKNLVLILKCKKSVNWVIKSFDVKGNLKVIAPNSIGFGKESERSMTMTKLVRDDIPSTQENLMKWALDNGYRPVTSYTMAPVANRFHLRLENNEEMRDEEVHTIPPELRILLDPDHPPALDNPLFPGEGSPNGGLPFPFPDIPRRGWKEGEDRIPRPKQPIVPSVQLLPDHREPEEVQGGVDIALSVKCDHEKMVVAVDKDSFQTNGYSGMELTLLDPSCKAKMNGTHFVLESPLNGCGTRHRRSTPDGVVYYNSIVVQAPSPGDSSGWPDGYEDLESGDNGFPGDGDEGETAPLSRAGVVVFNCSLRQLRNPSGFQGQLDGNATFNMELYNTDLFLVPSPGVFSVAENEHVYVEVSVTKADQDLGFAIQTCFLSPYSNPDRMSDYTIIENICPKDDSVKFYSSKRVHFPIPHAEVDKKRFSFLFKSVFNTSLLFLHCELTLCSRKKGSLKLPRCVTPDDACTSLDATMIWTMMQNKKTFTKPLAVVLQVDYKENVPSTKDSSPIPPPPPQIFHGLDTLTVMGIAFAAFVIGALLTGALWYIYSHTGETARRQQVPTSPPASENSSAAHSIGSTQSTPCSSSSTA
Nature of the experiment: co-IP; HSC lysate in RIPA lysis buffer with protease inhibitors; IP with anti-TβRIII antibody, Western blot with anti-β-arrestin2 antibody; cells with or without TGF-β1 treatment, and with β-arrestin2 siRNA. On the technique in general: Immunoblotting shows a protein as a band on a membrane.

Consider β-arrestin2 (from UniProt P29067 1-410), for which the binding result is listed as “binds”.

(Values after publication PMC7242363.)
